From patent US20240408027A1, “HIGH DRUG LOADING POLYMERS” (priority 2021, published 2024)
Some of these results come from one statement about several compounds together.

Assay: Drug loading of paclitaxel, etoposide, chloroquine into core library (Example 3)
Conditions: polymer:drug 1:1

| Structure (SMILES) | LC after core optimization [%] |
| --- | --- |
| CC(=O)O[C@H]1C(=O)[C@@]2(C)[C@H]([C@H](OC(=O)c3ccccc3)[C@]3(O)C[C@H](OC(=O)[C@H](O)[C@@H](NC(=O)c4ccccc4)c4ccccc4)C(C)=C1C3(C)C)[C@]1(OC(C)=O)CO[C@@H]1C[C@@H]2O [Paclitaxel, paclitaxel] | > 35 |
| COc1cc([C@@H]2c3cc4c(cc3[C@@H](O[C@@H]3O[C@@H]5CO[C@@H](C)O[C@H]5[C@H](O)[C@H]3O)[C@H]3COC(=O)[C@H]23)OCO4)cc(OC)c1O [etoposide] | > 35 |
